PubChem BioAssay AID1259308 – NCATS – 2017
Aim: 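Candidate targets for better recombinant protein yield in mammalian cells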 (primary screen). Cells: human HEK293 embryonic kidney cells stably expressing firefly luciferase (HEK-CMV-Luc2-Hygro). Knock-down reagent: single siRNA against human genes, 0.8 pmol siRNA per well. Timing: 72 h. Measured: 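Reporter luminescence and viable-cell signal on separate replicate plates, given as percent of non-targeting control and median/MAD z-scores, plus per-cell luciferase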. Scale: total luciferase, z-score and total luciferase, % of control: higher = more reporter protein produced. Active means: 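An siRNA counts as active if its total luciferase robust z-score exceeds 3; genes with two or more such siRNAs out of three were retested with fresh siRNAs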. Calls: active = raised luciferase; inactive = no rise.
The deposit covers about 59,000 reagents; this is a part drawn at random. Over the whole deposit, about 1,510 (2.6%) are marked active. 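Calls use total luciferase alone and ignore viability, so some active siRNAs may act by altering cell number.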 Unmarked entries are inactive. Further read-outs or replicates are left out here.

Against ENTPD6 (ectonucleoside triphosphate diphosphohydrolase 6) [SID160739248], the values are total luciferase, z-score -0.576; total luciferase, % of control 70.4.
For ENTPD6 (ectonucleoside triphosphate diphosphohydrolase 6) [SID160739258], the values are total luciferase, z-score 0.233; total luciferase, % of control 86.5.
For ENTPD6 (ectonucleoside triphosphate diphosphohydrolase 6) [SID160739269] the deposit lists total luciferase, z-score -0.85; total luciferase, % of control 65.
Silencing of KCTD11 (potassium channel tetramerization domain containing 11) [SID160758468] gave: total luciferase, z-score -0.288; total luciferase, % of control 76.2.
KCTD11 (potassium channel tetramerization domain containing 11) [SID160758469] showed total luciferase, z-score -0.449; total luciferase, % of control 73.
Knock-down of KCTD11 (potassium channel tetramerization domain containing 11) [SID160758470] came out at: total luciferase, z-score -2.26; total luciferase, % of control 37.
For OR2T10 (olfactory receptor family 2 subfamily T member 10) [SID160756578] the deposit lists total luciferase, z-score 1.07; total luciferase, % of control 103.
Against OR2T10 (olfactory receptor family 2 subfamily T member 10) [SID160756579], the entry reads total luciferase, z-score 1.51; total luciferase, % of control 112.
OR2T10 (olfactory receptor family 2 subfamily T member 10) [SID160756580] showed total luciferase, z-score -0.417; total luciferase, % of control 73.6.
Against H3-4 (H3.4 histone, cluster member) [SID160719804], the values are total luciferase, z-score -0.566; total luciferase, % of control 70.6.
For H3-4 (H3.4 histone, cluster member) [SID160724126] the deposit lists total luciferase, z-score -1.27; total luciferase, % of control 56.6.
H3-4 (H3.4 histone, cluster member) [SID160724128] scored total luciferase, z-score -0.676; total luciferase, % of control 68.4.
After knock-down of PCBP3 (poly(rC) binding protein 3) [SID160731444], the screen gave total luciferase, z-score 0.584; total luciferase, % of control 93.5.
Depletion of PCBP3 (poly(rC) binding protein 3) [SID160741541] resulted in: total luciferase, z-score -0.632; total luciferase, % of control 69.3.
With knock-down of PCBP3 (poly(rC) binding protein 3) [SID160741542] the results were total luciferase, z-score 0.735; total luciferase, % of control 96.5.
Knock-down of RHOT2 (ras homolog family member T2) [SID160753515] gave: total luciferase, z-score 0.173; total luciferase, % of control 85.3.
With knock-down of RHOT2 (ras homolog family member T2) [SID160753517], the record shows total luciferase, z-score 2.8; total luciferase, % of control 138.
RHOT2 (ras homolog family member T2) [SID160753518] showed total luciferase, z-score -0.621; total luciferase, % of control 69.5.
Against SLC71A1 [SID160747842] the deposit lists total luciferase, z-score 0.0116; total luciferase, % of control 82.1.
After knock-down of SLC71A1 [SID160747843] the results were total luciferase, z-score -0.255; total luciferase, % of control 76.8.
After knock-down of SLC71A1 [SID160747844], the screen gave total luciferase, z-score -0.3; total luciferase, % of control 75.9.
With knock-down of SETSIP (SET like protein) [SID160770025] the results were total luciferase, z-score -0.0123; total luciferase, % of control 81.6.
Against SETSIP (SET like protein) [SID160770026], the entry reads total luciferase, z-score 0.479; total luciferase, % of control 91.4.
Knock-down of SETSIP (SET like protein) [SID160770027] resulted in: total luciferase, z-score 0.879; total luciferase, % of control 99.4.
Depletion of PLAC4 (placenta associated 4) [SID160760538] gave: total luciferase, z-score 0.0497; total luciferase, % of control 82.9.
After knock-down of PLAC4 (placenta associated 4) [SID160760539], the record shows total luciferase, z-score 0.156; total luciferase, % of control 85.
PLAC4 (placenta associated 4) [SID160760540] scored total luciferase, z-score -0.217; total luciferase, % of control 77.6.
For FAM124B (family with sequence similarity 124 member B) [SID160749583] the deposit lists total luciferase, z-score -0.462; total luciferase, % of control 72.7.
Knock-down of FAM124B (family with sequence similarity 124 member B) [SID160749584] gave: total luciferase, z-score -0.642; total luciferase, % of control 69.1.
Silencing of FAM124B (family with sequence similarity 124 member B) [SID160749585] resulted in: total luciferase, z-score 0.209; total luciferase, % of control 86.1.
Against TWIST1 (twist family bHLH transcription factor 1) [SID160718471], the values are total luciferase, z-score 0.909; total luciferase, % of control 100.
TWIST1 (twist family bHLH transcription factor 1) [SID160718472] showed total luciferase, z-score 0.58; total luciferase, % of control 93.4.
TWIST1 (twist family bHLH transcription factor 1) [SID160718473] scored total luciferase, z-score 0.537; total luciferase, % of control 92.6.
